Source: the supplement of paper PMC8728848
The other results are listed elsewhere or left out.

What was measured:
Assay in all cases: glycan array binding signal (z-score within array); higher = stronger binding
Settings in all cases: glycan notation: IUPAC condensed, linker removed
[1] = molecular target: Gal(b1-4)GlcNAc(b1-3)Gal(b1-4)GlcNAc(b1-2)Man(a1-3)[Gal(b1-4)GlcNAc(b1-3)Gal(b1-4)GlcNAc(b1-2)Man(a1-6)]Man(b1-4)GlcNAc(b1-4)[Fuc(a1-6)]GlcNAc
How it was run: (§1)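 Arrays were curated from the Consortium for Functional Glycomics database, 3228 in total, and kept only where the protein sequence was available. Binding is expressed as a within-array Z-score. This score was averaged across arrays of the same protein sequence at different concentrations or buffers and across linkers, and negative values can be read as non-binding.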

[2] = molecular target: Gal(b1-4)GlcNAc(b1-3)Gal(b1-4)GlcNAc(b1-2)[Gal(b1-4)GlcNAc(b1-3)Gal(b1-4)GlcNAc(b1-6)]Man(a1-6)[Gal(b1-4)GlcNAc(b1-3)Gal(b1-4)GlcNAc(b1-2)Man(a1-3)]Man(b1-4)GlcNAc(b1-4)GlcNAc
How it was run: as §1

[3] = molecular target: Gal(b1-4)GlcNAc(b1-3)Gal(b1-4)GlcNAc(b1-2)[Gal(b1-4)GlcNAc(b1-3)Gal(b1-4)GlcNAc(b1-6)]Man(a1-6)[Gal(b1-4)GlcNAc(b1-3)Gal(b1-4)GlcNAc(b1-2)Man(a1-3)]Man(b1-4)GlcNAc(b1-4)[Fuc(a1-6)]GlcNAc
How it was run: as §1

[4] = molecular target: Gal(b1-4)GlcNAc(b1-3)Gal(b1-4)GlcNAc(b1-3)Gal(b1-4)GlcNAc
How it was run: as §1

[5] = molecular target: Gal(b1-4)GlcNAc(b1-3)Gal(b1-4)GlcNAc(b1-3)Gal(b1-4)GlcNAc(b1-2)Man(a1-3)[Gal(b1-4)GlcNAc(b1-3)Gal(b1-4)GlcNAc(b1-3)Gal(b1-4)GlcNAc(b1-2)Man(a1-6)]Man(b1-4)GlcNAc(b1-4)GlcNAc
How it was run: as §1

[6] = molecular target: Gal(b1-4)GlcNAc(b1-3)Gal(b1-4)GlcNAc(b1-3)Gal(b1-4)GlcNAc(b1-2)Man(a1-3)[Gal(b1-4)GlcNAc(b1-3)Gal(b1-4)GlcNAc(b1-3)Gal(b1-4)GlcNAc(b1-2)Man(a1-6)]Man(b1-4)GlcNAc(b1-4)[Fuc(a1-6)]GlcNAc
How it was run: as §1

[7] = molecular target: Gal(b1-4)GlcNAc(b1-3)Gal(b1-4)GlcNAc(b1-3)Gal(b1-4)GlcNAc(b1-2)[Gal(b1-4)GlcNAc(b1-3)Gal(b1-4)GlcNAc(b1-3)Gal(b1-4)GlcNAc(b1-6)]Man(a1-6)[Gal(b1-4)GlcNAc(b1-3)Gal(b1-4)GlcNAc(b1-3)Gal(b1-4)GlcNAc(b1-2)Man(a1-3)]Man(b1-4)GlcNAc(b1-4)[Fuc(a1-6)]GlcNAc
How it was run: as §1

[8] = molecular target: Gal(b1-4)GlcNAc(b1-3)Gal(b1-4)GlcNAc(b1-3)Gal(b1-4)GlcNAc(b1-3)Gal(b1-4)GlcNAc(b1-2)Man(a1-3)[Gal(b1-4)GlcNAc(b1-3)Gal(b1-4)GlcNAc(b1-3)Gal(b1-4)GlcNAc(b1-3)Gal(b1-4)GlcNAc(b1-2)Man(a1-6)]Man(b1-4)GlcNAc(b1-4)GlcNAc
How it was run: as §1

[9] = molecular target: Gal(b1-4)GlcNAc(b1-3)Gal(b1-4)GlcNAc(b1-3)Gal(b1-4)GlcNAc(b1-3)Gal(b1-4)GlcNAc(b1-2)Man(a1-3)[Gal(b1-4)GlcNAc(b1-3)Gal(b1-4)GlcNAc(b1-3)Gal(b1-4)GlcNAc(b1-3)Gal(b1-4)GlcNAc(b1-2)Man(a1-6)]Man(b1-4)GlcNAc(b1-4)[Fuc(a1-6)]GlcNAc
How it was run: as §1

[10] = molecular target: Gal(b1-4)GlcNAc(b1-3)Gal(b1-4)GlcNAc(b1-3)Gal(b1-4)GlcNAc(b1-3)Gal(b1-4)GlcNAc(b1-2)[Gal(b1-4)GlcNAc(b1-3)Gal(b1-4)GlcNAc(b1-3)Gal(b1-4)GlcNAc(b1-3)Gal(b1-4)GlcNAc(b1-6)]Man(a1-6)[Gal(b1-4)GlcNAc(b1-3)Gal(b1-4)GlcNAc(b1-3)Gal(b1-4)GlcNAc(b1-3)Gal(b1-4)GlcNAc(b1-2)Man(a1-3)]Man(b1-4)GlcNAc(b1-4)[Fuc(a1-6)]GlcNAc
How it was run: as §1

[11] = molecular target: Gal(b1-4)GlcNAc(b1-3)Gal(b1-4)GlcNAc(b1-3)Gal(b1-4)GlcNAc(b1-3)Gal(b1-4)GlcNAc(b1-3)Gal(b1-4)GlcNAc(b1-2)Man(a1-3)[Gal(b1-4)GlcNAc(b1-3)Gal(b1-4)GlcNAc(b1-3)Gal(b1-4)GlcNAc(b1-3)Gal(b1-4)GlcNAc(b1-3)Gal(b1-4)GlcNAc(b1-2)Man(a1-6)]Man(b1-4)GlcNAc(b1-4)GlcNAc
How it was run: as §1

[12] = molecular target: Gal(b1-4)GlcNAc(b1-3)Gal(b1-4)GlcNAc(b1-3)Gal(b1-4)GlcNAc(b1-3)Gal(b1-4)GlcNAc(b1-3)Gal(b1-4)GlcNAc(b1-2)Man(a1-3)[Gal(b1-4)GlcNAc(b1-3)Gal(b1-4)GlcNAc(b1-3)Gal(b1-4)GlcNAc(b1-3)Gal(b1-4)GlcNAc(b1-3)Gal(b1-4)GlcNAc(b1-2)Man(a1-6)]Man(b1-4)GlcNAc(b1-4)[Fuc(a1-6)]GlcNAc
How it was run: as §1

[13] = molecular target: Gal(b1-4)GlcNAc(b1-3)Gal(b1-4)GlcNAc(b1-3)Gal(b1-4)GlcNAc(b1-3)Gal(b1-4)GlcNAc(b1-3)Gal(b1-4)GlcNAc(b1-2)[Gal(b1-4)GlcNAc(b1-3)Gal(b1-4)GlcNAc(b1-3)Gal(b1-4)GlcNAc(b1-3)Gal(b1-4)GlcNAc(b1-3)Gal(b1-4)GlcNAc(b1-6)]Man(a1-6)[Gal(b1-4)GlcNAc(b1-3)Gal(b1-4)GlcNAc(b1-3)Gal(b1-4)GlcNAc(b1-3)Gal(b1-4)GlcNAc(b1-3)Gal(b1-4)GlcNAc(b1-2)Man(a1-3)]Man(b1-4)GlcNAc(b1-4)[Fuc(a1-6)]GlcNAc
How it was run: as §1

[14] = molecular target: Gal(b1-4)GlcNAc(b1-3)Gal(b1-4)GlcNAc(b1-3)Gal(b1-4)GlcNAc(b1-3)Gal(b1-4)GlcNAc(b1-3)Gal(b1-4)GlcNAc(b1-3)Gal(b1-4)GlcNAc(b1-2)Man(a1-3)[Gal(b1-4)GlcNAc(b1-3)Gal(b1-4)GlcNAc(b1-3)Gal(b1-4)GlcNAc(b1-3)Gal(b1-4)GlcNAc(b1-3)Gal(b1-4)GlcNAc(b1-3)Gal(b1-4)GlcNAc(b1-2)Man(a1-6)]Man(b1-4)GlcNAc(b1-4)GlcNAc
How it was run: as §1

[15] = molecular target: Gal(b1-4)GlcNAc(b1-3)Gal(b1-4)GlcNAc(b1-3)GalNAc
How it was run: as §1

[16] = molecular target: Gal(b1-4)GlcNAc(b1-3)Gal(b1-4)GlcNAc(b1-3)[Gal(b1-4)GlcNAc(b1-3)Gal(b1-4)GlcNAc(b1-6)]GalNAc
How it was run: as §1

[17] = molecular target: Gal(b1-4)GlcNAc(b1-3)Gal(b1-4)GlcNAc(b1-6)[Gal(b1-3)]GalNAc
How it was run: as §1

[18] = molecular target: Gal(b1-4)GlcNAc(b1-3)Gal(b1-4)[Fuc(a1-3)]GlcNAc(b1-3)Gal(b1-4)[Fuc(a1-3)]GlcNAc
How it was run: as §1

[19] = molecular target: Gal(b1-4)GlcNAc(b1-3)GalNAc
How it was run: as §1

[20] = molecular target: Gal(b1-4)GlcNAc(b1-3)[Fuc(a1-3)GlcNAc(b1-6)]Gal(b1-4)Glc
How it was run: as §1

[21] = molecular target: Gal(b1-4)GlcNAc(b1-3)[Gal(b1-4)GlcNAc(b1-6)]Gal(b1-4)GlcNAc
How it was run: as §1

[22] = molecular target: Gal(b1-4)GlcNAc(b1-3)[GlcNAc(b1-6)]Gal(b1-4)GlcNAc
How it was run: as §1

B1: XTP3-B-MRH1 (Homo sapiens), Q96DZ1 (protein)
chain: LLEPLFKQSSCSYRIESYWTYEVCHGKHIRQYHEEKETGQKINIHEYYLGNMLAKNLLFEKEREAEEKEKSNEIPTKNIEGQMTPYYPVGMGNGTPCSLKQNRPRSSTVMYICHPESKHEILSVAEVTTCEYEVVILTPLLCSHPKYRFRA
- glycan array binding signal (z-score) [1]: 1.96
- glycan array binding signal (z-score) [2]: 0.072
- glycan array binding signal (z-score) [3]: 1.26
- glycan array binding signal (z-score) [4]: 1.11
- glycan array binding signal (z-score) [5]: 0.049
- glycan array binding signal (z-score) [6]: 1.67
- glycan array binding signal (z-score) [7]: 1.19
- glycan array binding signal (z-score) [8]: -0.342
- glycan array binding signal (z-score) [9]: 0.319
- glycan array binding signal (z-score) [10]: 1.37
- glycan array binding signal (z-score) [11]: 0.499
- glycan array binding signal (z-score) [12]: -0.69
- glycan array binding signal (z-score) [13]: 0.11
- glycan array binding signal (z-score) [14]: 0.082
- glycan array binding signal (z-score) [15]: -1.07
- glycan array binding signal (z-score) [16]: 1.07
- glycan array binding signal (z-score) [17]: -1.11
- glycan array binding signal (z-score) [18]: 1.64
- glycan array binding signal (z-score) [19]: -0.205
- glycan array binding signal (z-score) [20]: -0.36
- glycan array binding signal (z-score) [21]: -1.12
- glycan array binding signal (z-score) [22]: -0.819
